# Experimental data from US20040002078.
# The exact form of at least one protein or probe is not confirmed. At least one result comes from cells or an extract, where the contact may be indirect.
# Molecular target: p53 wild type (Homo sapiens) (UniProt P04637)
# Test: EMSA
# Details: protein in a lysate after overexpression; label: 5' DIG on SEQ:3 strand; variant of GADD45 promoter element duplex (33P)
sequence,measurement,value
GTACAGAACATGTCTAAGCATGCTGGGGAC (double strand) [DIGGADD45A/GADD45B duplex],binding result,binds
